# Source: PubChem BioAssay AID540276 (National Center for Advancing Translational Sciences (NCATS), 2011)
# “And” between values parts separate entries of the source, which are not always exact repeats. Identical values can stand only once. The campaign covered roughly 300,000 compounds. About 5,400 (1.8%) were called active. This list was built around the results that the source calls inconclusive (neither active nor inactive); the mix of calls is not that of the screen. Calls come from the whole dose curve; tested in HEK293 cells. A potency beside an inconclusive call is a rough fit, not a confirmed value.
# Experiment: qHTS for inhibitors of binding or entry into cells for Marburg Virus
# Details: Marburg virus pseudotyped entry inhibition, cell reporter; activity change, negative = inhibition: at 37.8 µM (top of the series) unless noted
# % is set by controls: 0 for no effect and ±100 for the full control effect; potency is the fitted concentration of half-maximal effect.
Structure (SMILES),"activity change, negative = inhibition",Potency
O=C(Nc1ccc(C(=O)N2CCCC2)cc1)c1ccccc1Br,inactive: 5.46%,
O=C(N/N=C/c1cn(-c2ccccc2)nc1-c1cccs1)c1ccncc1,,"inconclusive: 14.1 µM [inhibitor, single point]"
CN(C)S(=O)(=O)N1CCN(CC(O)COc2ccc3cc(Br)ccc3c2)CC1 (configuration not stated),,"inconclusive: 35.5 µM [inhibitor, single point]"
Cc1ccc(-c2nc3ccccn3c2Nc2ccc3c(c2)OCCO3)o1,inactive: -0.924% [at 46.1 µM],
Cc1ccc2nc(SC(C)C(=O)N3CC(C)OC(C)C3)[nH]c2c1 (configuration not stated),inactive: 3.74% [at 46.1 µM],
CC1CCN(CCCn2c(SCC(=O)NC3CCCC3)nc3ccccc3c2=O)CC1,,"inconclusive: 11.2 µM [inhibitor, partial curve, poor fit]"
CCOC(=O)c1cnc2scnn2c1=O,,"inconclusive: 0.708 µM [activator, full curve, poor fit]"
C=CCN(CC=C)C(=S)NC(=O)c1ccc(C)c(Br)c1,,"inconclusive: 2.31 µM [inhibitor, partial curve]"
COc1cccc(/C=N/NC(=O)CNC(=O)C(c2ccccc2)c2ccccc2)c1O,,"inconclusive: 12.6 µM [inhibitor, partial curve, poor fit]"
Nc1c(C(=O)O)sc2nc(-c3ccccc3)cc(-c3ccc(Cl)cc3)c12,,"inconclusive: 0.562 µM [inhibitor, full curve, poor fit]"
COc1cc(CC(=O)N(C)CC(=O)Nc2cc(C)ccc2C)cc(OC)c1OC,inactive: 3.15% [at 46.1 µM],
c1ccc(CCn2nnnc2C(c2cccnc2)N2CCOCC2)cc1 (configuration not stated),inactive: 17.3%,
O=C(/C=C\Nc1ccc2c(c1)OCO2)c1ccccn1,,"inconclusive: 0.251 µM [inhibitor, full curve, poor fit]"
c1ccc2c(c1)CC/C2=N/Nc1nc2ccccc2[nH]1,,"inconclusive: 35.5 µM [inhibitor, single point]"
COc1ccc(S(=O)(=O)N2CCCC2C(=O)n2nc(C)cc2C)cc1 (configuration not stated),,"inconclusive: 35.5 µM [inhibitor, single point]"
Cc1cc(Nc2ccc(F)cc2)nc(N)n1,inactive: -20%,
Cc1cc(C)n(Cc2ccccc2)c(=O)c1S(=O)(=O)c1ccccc1,inactive: 0.973%,
COCCc1nnc(NC(=O)C23CC4CC(CC(C4)C2)C3)s1,inactive: 3.96%,
Clc1ccc(CN2C3=NCCN3c3ccccc32)cc1,,"inconclusive: 14.1 µM [inhibitor, single point]"
CN(C)CCOc1ncnc2c1oc1ccccc12,inactive: -3.37%,
COc1ccccc1C(=O)NC(CCSC)C(=O)NCC(c1ccco1)N(C)C (configuration not stated),,"inconclusive: 0.82 µM [inhibitor, full curve, poor fit]"
O=C(N/N=C\C1C(=O)NC(=S)N(c2ccccc2)C1=O)c1ccc(O)cc1 (configuration not stated),,"inconclusive: 14.1 µM [activator, single point]"
CCn1cc([N+](=O)[O-])nc1C,,"inconclusive: 31.6 µM [activator, single point]"

Structure (SMILES),"activity change, negative = inhibition",Potency
N/C(=N\OC(=O)Nc1ccccc1)c1ccno1,,"inconclusive: 35.5 µM [activator, partial curve, poor fit]"
CCOc1ccc(NC(=O)C2CCN(S(=O)(=O)c3c(C)noc3/C=C/c3ccco3)CC2)cc1,,"inconclusive: 11.2 µM [activator, partial curve, poor fit]"
CC(C)Cn1cnc2c1c(=O)n(CC(=O)NC(=O)NC(C)(C)C)c(=O)n2Cc1ccccc1,inactive: -0.452% [at 46.1 µM],
Cc1c(Cl)cccc1NS(=O)(=O)c1ccc(NS(=O)(=O)c2ccc3c(c2)OCCO3)cc1,inactive: 0.773% [at 46.1 µM],
CCOC(=O)Cn1c(=O)c2c(nc(Br)n2Cc2ccccc2Cl)n(C)c1=O,inactive: -20.4%,
Cc1ccc(NC(=O)CCn2nc(C)cc2C)c(C)c1,inactive: -1.15%,
CC(c1ccccc1)N(CC(=O)NC1CCCCC1)S(=O)(=O)c1cccc(C(F)(F)F)c1 (configuration not stated),,"inconclusive: 11.2 µM [inhibitor, partial curve, poor fit]"
C/C(=N\N=C(N)N)c1ccc(Cl)c(Cl)c1,,"inconclusive: 35.5 µM [inhibitor, single point]"
COC(=O)c1ccc(CSc2n[nH]c(=S)s2)o1,,"inconclusive: 0.0891 µM [inhibitor, full curve, poor fit]"
COc1cc(C)c(Cl)cc1S(=O)(=O)n1ccnc1,,"inconclusive: 32.6 µM [activator, partial curve, poor fit]"
Cc1sc(NC(=S)Nc2ccc(F)cc2)c(C(N)=O)c1C,inactive: -1.11% [at 46.1 µM],
O=C(c1ccccc1F)N1c2nc(-c3ccco3)nn2C2(CCCCC2)[C@@H]2CCCC[C@@H]21,,"inconclusive: 15.8 µM [inhibitor, single point]"
Nc1nnc(SCC(=O)NNC(=O)c2ccccc2)s1,,"inconclusive: 5.62 µM [inhibitor, single point]"
CCOC(=O)N/N=C(\C)c1ccc(C)c([N+](=O)[O-])c1,,"inconclusive: 5.62 µM [activator, single point]"
COc1ccc(/C=C/C(=O)N/C(=C\c2ccco2)C(=O)NCCc2nc3ccccc3[nH]2)cc1,inactive: -22%,
COc1ccc(-c2nc(NC(C)=O)sc2-c2ccccc2)cc1,inactive: -16.8% [at 46.1 µM],
O=C(Nc1ccc(Nc2ccncc2)cc1)c1ccc(Nc2ccnc3ccc([N+](=O)[O-])cc23)cc1,,"inconclusive: 1.41 µM [inhibitor, full curve, poor fit]"
CC1CN(C2CCCCC2)c2nc3c(c(=O)[nH]c(=O)n3C)n2C1 (configuration not stated),,"inconclusive: 7.08 µM [inhibitor, full curve, poor fit]"
Cc1ccc(N2C(=O)NC(=O)/C(=C/c3ccc(OC(=O)c4cccs4)cc3)C2=O)cc1,,"inconclusive: 13 µM [activator, single point]"
O=C(CSc1nc2c(sc3ccccc32)c(=O)n1CCCN1CCOCC1)NC1CCCC1,,active: 8.2 µM
CCc1ccc(CN(C(=O)Nc2cccc(Cl)c2)c2ccccn2)cc1,inactive: 18.2% [at 46.1 µM],
CCOC(=O)C(NCc1ccco1)(NC(=O)c1ccc(OC)cc1)C(F)(F)F (configuration not stated),,"inconclusive: 4.47 µM [activator, full curve, poor fit]"
COC(=O)C1=C2CCCO[C@H]2[C@@H]2[C@@H](C)[C@H](OC)c3ccccc3[C@@H]12,inactive: 1.59% [at 14.2 µM],

Structure (SMILES),"activity change, negative = inhibition",Potency
COC(=O)C[C@]1(C(=O)OC)CN(C#N)N(c2ccc(Cl)cc2)C12c1ccccc1-c1ccccc12,,"inconclusive: 4.47 µM [inhibitor, full curve, poor fit]"
CCCC(O)(CCC)C(=O)NNc1ccc(C)cc1,,"inconclusive: 10 µM [inhibitor, partial curve, poor fit]"
COC(=O)C1=CO[C@@H](OC2OC(CO)C(O)C(O)C2O)[C@@H]2C(CO)=CC[C@H]12 (some centres not stated),inactive: 10%,
N=c1c2c(ncn1Cc1ccco1)Oc1c(ccc3ccccc13)C2c1ccccc1 (configuration not stated),,"inconclusive: 15.8 µM [inhibitor, partial curve, poor fit]"
COc1ccc(C(=O)Nc2ccc3nc4n(c(=O)c3c2)CCCC4)cc1[N+](=O)[O-],,"inconclusive: 1.16 µM [activator, partial curve, poor fit]"
O=C(Cc1ccccc1F)Nc1cccc2cccnc12,inactive: 7.18%,
COc1ccccc1N(C)S(=O)(=O)c1ccc(C(=O)Nc2ccc(N3CCOCC3)cc2)cc1,,"inconclusive: 25.1 µM [inhibitor, single point]"
COc1ccc(-c2nc3n(c2C)Cc2ccccc2-3)cc1,,"inconclusive: 0.562 µM [activator, full curve, poor fit]"
CCCCOc1ncnc2c1[nH]c1ccc(OC)cc12,,"inconclusive: 32.6 µM [inhibitor, single point]"
O=C(COC(=O)[C@@H]1CC(O)CN1S(=O)(=O)c1ccccc1[N+](=O)[O-])Nc1ccc2ccccc2c1 (some centres not stated),,"inconclusive: 5.01 µM [activator, full curve, poor fit]"
Cc1cc(/C=C2/NC(=O)NC2=O)c(C)n1-c1ccccn1,,"inconclusive: 1.26 µM [activator, single point]"
O=S(=O)(NCC(c1cccnc1)N1CCN(Cc2ccccc2)CC1)c1ccc(Cl)cc1 (configuration not stated),,"inconclusive: 25.1 µM [inhibitor, single point]"
FC(F)(F)C1=Nc2cccc3cccc(c23)N1,inactive: 4.49%,
COc1ccc(-c2cc(C(F)(F)F)nc(SCCC(=O)Nc3cccc(OC)c3)n2)cc1,,"inconclusive: 7.08 µM [inhibitor, full curve, poor fit]"
COc1ccc(C(=O)OC(COc2ccccc2)Cn2ccnc2)cc1 (configuration not stated),,"inconclusive: 0.631 µM [activator, full curve, poor fit]"
O=S(=O)(Nc1cc2nc3ccccc3nc2n1Cc1ccccc1)c1ccc(Cl)cc1,,"inactive and inconclusive: 9.2 µM [inhibitor, partial curve, poor fit]"
CCN(CC(=O)Nc1ccc(N2CCOCC2)cc1)C(=O)COc1ccccc1OC,,"inconclusive: 1.78 µM [activator, partial curve, poor fit]"
CCC1CCCCN1C(=O)CSc1nc2ccsc2c(=O)n1Cc1ccccc1 (configuration not stated),,"inconclusive: 18.3 µM [inhibitor, single point]"
O=C(CCn1c(=O)[nH]c2ccccc2c1=O)NCCCN1CCN(c2cccc(Cl)c2)CC1,,"inconclusive: 20.6 µM [inhibitor, partial curve, poor fit]"
CCc1ccc(NC(=O)c2ccc(NS(=O)(=O)c3c(C)noc3C)cc2)cc1,inactive: 19.8% [at 46.1 µM],
Cc1ccccc1N/C(SCc1ccc(Cl)cc1)=C(/C#N)C(N)=O,,"inconclusive: 10 µM [inhibitor, partial curve, poor fit]"
